Measurements from US20240391902A1, “Crystalline Form of Compound” (Shenzhen Forward Pharmaceuticals Co., Limited, priority 2020, published 2024).
Some entries share one result that the patent states for a list of compounds. For at least one compound, name, drawing or mass did not settle the structure.

Assay: Solid solubility test (2 h and 24 h)
Assay type: physicochemical
Settings: for solubility in all solvents tested: 2 h solid solubility test; for solubility in solvents that mimic physiological conditions: some / various solvents that mimic physiological conditions
Experimental: 5 samples were weighed for each amorphous salt solid (equivalent to 20 mg of free base), and 10 mL of the following solvents were respectively added: 0.1N HCl solution (pH 1.0), 50 mM phosphate buffer (pH 4.5), FeSSIF-V1 (pH 5.0), FaSSIF-V1 (pH 6.5) and SGF (pH 2.0), and stirred at 37° C. for 2 h. The suspension was then centrifuged at 37° C., the supernatant was measured for solubility by HPLC, and the solid fraction was measured for XRPD. The target solubility was at least 2 mg (based on free base)/mL.

| Structure (SMILES) | solubility in all solvents tested | solubility in solvents that mimic physiological conditions |
| --- | --- | --- |
| C=CC(=O)Nc1cc(Nc2ncnc(-c3cn(C)c4ccccc34)n2)c(OC)cc1N(C)CCN(C)C [Example 5] | greater than 2 mg/mL | greater than 2 mg/mL |
| C=CC(=O)Nc1cc(Nc2ncnc(-c3cn(C)c4ccccc34)n2)c(OC)cc1N(C)CCN(C)C [Example 6] | greater than 2 mg/mL | greater than 2 mg/mL |
